Results reported in PMC10683014, “Amino Acids as Chelating Ligands for Platinum: Enhanced Stability in an Aqueous Environment Promoted by Biocompatible Molecules” (Journal of Medicinal Chemistry, 2023).

How the values were obtained:
[1] = test system: A2780cis ovarian carcinoma cell line (cisplatin-resistant); assay: MTT metabolic activity (cytotoxicity) assay, A2780cis; type: cell-based; conditions: 25 µM; Sidak's multiple comparisons test
Procedure: (§1) In order to determine the antitumor activity of the platinum complexes, in vitro cytotoxicity tests were performed. Compounds 1–4 were tested with cisplatin as a reference on the breast cancer cell line MCF-7 and the colon carcinoma cell line HT-29. Complexes 1, 4, and 5, as well as the ligand (but-3-en-1-yl 2-acetoxybenzoate, 6) were additionally evaluated on MDA-MB-231 cells and A2780cis cells, also using cisplatin as a reference. The metabolic activity as an indicator of cytotoxicity was determined by a classical 3-(4,5-dimethylthiazol-2-yl)-2,5-diphenyltetrazoliumbromid (MTT) assay.
(§2) The cell lines A2780cis and MDA-MB-231 were cultivated in RPMI 1640 without phenol red (PAN Biotech, Aidenbach, Germany), supplemented with L-glutamine (2 mM), 100 μg/mL penicillin, 100 μg/mL streptomycin, and FCS (10%) (all from Invitrogen Corporation, Gibco, Paisley, Scotland) at 37 °C in a 5% CO2/95% air atmosphere, and passaged twice per week. To maintain resistance, A2780cis cells were incubated every second week with cisplatin (1 μM). The cell lines MCF-7 and HT-29 were grown in DMEM without phenol red (PAN Biotech, Aidenbach, Germany), containing L-glutamine, 100 μg/mL penicillin, 100 μg/mL streptomycin, sodium pyruvate ([…]) (PAN Biotech), and FCS (10%) under the same conditions as the other cell lines.
The exponentially growing cell lines were seeded at a density of 2000 cells/well for MCF-7 cells, 4000 cells/well for HT-29 cells and MDA-MB-231 cells, and 8000 cells/well for A2780cis cells, respectively, into clear flat-bottom 96-well plates in triplicates. […] After another 72 h of incubation, the cellular metabolic activity was measured by employing a MTT assay. […] These purple crystals are then dissolved in DMSO and can be quantified via absorption measurements at 570 and 420 nm. […] The values were calculated with Excel 2019 (Microsoft, Redmond, WA, USA) using nonlinear regression and the decal logarithm of the inhibitor versus variable slope equation, while the top constraint was set to 100%.

[2] = test system: MDA-MB-231 breast cancer cell line; assay: MTT metabolic activity (cytotoxicity) assay, MDA-MB-231; type: cell-based; conditions: 25 µM; Sidak's multiple comparisons test
Procedure: as §1, §2
The exponentially growing cell lines were seeded at a density of 2000 cells/well for MCF-7 cells, 4000 cells/well for HT-29 cells and MDA-MB-231 cells, and 8000 cells/well for A2780cis cells, respectively, into clear flat-bottom 96-well plates in triplicates. Following 24 h of incubation for adherence at 37 °C in a humidified atmosphere (5% CO2/95% air), the compounds were added to reach the desired concentrations between 10 and 100 μM, respectively. All stock solutions were prepared in dimethylformamide at a concentration of 100 mM and were then diluted with the respective cell-culture medium to the appropriate concentrations. After another 72 h of incubation, the cellular metabolic activity was measured by employing a MTT assay. Hereby, the yellow tetrazolium salt is converted to a purple formazan salt by the functioning mitochondria. These purple crystals are then dissolved in DMSO and can be quantified via absorption measurements at 570 and 420 nm. The optical density of the particular medium was subtracted in order to exclude the unspecific staining caused by the FCS-containing medium. The values were calculated with Excel 2019 (Microsoft, Redmond, WA, USA) using nonlinear regression and the decal logarithm of the inhibitor versus variable slope equation, while the top constraint was set to 100%.

With `C=C.C[C@H](N)C(=O)[O][Pt][Cl]` [1a, (Ethylene,N-trans)(L-alaninato-N,O)chlorido(η^2-ethene)platinate(II)] the “Mean Diff of residual metabolic activity, cisplatin vs. compound, A2780cis” value [1] was -102,1% and the “Mean Diff of residual metabolic activity, cisplatin vs. compound, MDA-MB-231” value [2] was -100,5%.
In the case of `C=CCCOC(=O)c1ccccc1OC(C)=O` [compound 6, but-3-en-1-yl 2-acetoxybenzoate], the “Mean Diff of residual metabolic activity, cisplatin vs. compound, A2780cis” value [1] was -103,5% and the “Mean Diff of residual metabolic activity, cisplatin vs. compound, MDA-MB-231” value [2] was -91,45%.
“(Ethylene,N-trans)(L-alaninato-N,O)chlorido(η^2-(but-3-en-1-yl)-2-acetoxybenzoate)platinate(II) [compound 4]” was tested, and the “Mean Diff of residual metabolic activity, cisplatin vs. compound, MDA-MB-231” value [2] was 0,996%.
For `C=CCCOC(=O)c1ccccc1OC(C)=O.[Cl][Pt-]([Cl])[Cl].[K+]` [compound 5, potassium {trichlorido[η^2-(but-3-en-1-yl)-2-acetoxybenzoate]platinate(II)}], the “Mean Diff of residual metabolic activity, cisplatin vs. compound, A2780cis” value [1] was -107,5% and the “Mean Diff of residual metabolic activity, cisplatin vs. compound, MDA-MB-231” value [2] was -90,69%.
